PubChem BioAssay AID1259405 – NCATS – 2018
The whole screen tested about 50,000 reagents; shown is an unselected part. Over the whole deposit, about 4,000 (8%) got an active call. 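Mouse siRNA library applied to hamster cells; one well for each siRNA.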 The numbers tell different reagents against one gene apart. No sequences are given here.

- Screen: 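Silenced genes that increase secreted GFP made by CHO cells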 (primary screen)
- Cells: Chinese hamster CHO-K1 ovary cells with stable secreted eGFP expression
- Knock-down reagent: single siRNA against mouse genes, 0.8 pmol siRNA per well (2 µl of 400 nM stock)
- Timing: 3 days
- Detection: 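Per-well intracellular GFP measured by laser scanning cytometry, plus viability from ATP luminescence, each relative to plate median of non-targeting control wells, in %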
- Reading the numbers: GFP, % of control: higher = more GFP per well, higher productivity; viability (ATP), % of control: higher = more viable cells (more ATP)
- Rule for the call: 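a knock-down is called active if GFP reaches 120% or more of non-targeting control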

With Poldip2 (GeneID 67811) #1, what was measured?
GFP, % of control: 74.6; viability (ATP), % of control: 88.9; activity call: inactive

What is on record for Poldip2 (GeneID 67811) #2?
GFP, % of control: 119; viability (ATP), % of control: 81.9; activity call: inactive

How did the screen score Poldip2 (GeneID 67811) #3?
GFP, % of control: 55.4; viability (ATP), % of control: 71.3; activity call: inactive

For Rab14 (GeneID 68365) #1, what was measured?
GFP, % of control: 103; viability (ATP), % of control: 94.2; activity call: inactive

With Rab14 (GeneID 68365) #2, how do the results read?
GFP, % of control: 95.2; viability (ATP), % of control: 91.4; activity call: inactive

Which result is listed for Rab14 (GeneID 68365) #3?
GFP, % of control: 45.4; viability (ATP), % of control: 90.4; activity call: inactive

What is on record for Ubd (GeneID 24108) #1?
GFP, % of control: 33.2; viability (ATP), % of control: 45.2; activity call: inactive

Which result is listed for Ubd (GeneID 24108) #2?
GFP, % of control: 70.8; viability (ATP), % of control: 50.2; activity call: inactive

For Ubd (GeneID 24108) #3, how do the results read?
GFP, % of control: 70.4; viability (ATP), % of control: 49; activity call: inactive

How did the screen score Hspb7 (GeneID 29818) #1?
GFP, % of control: 52.5; viability (ATP), % of control: 58.7; activity call: inactive

What is on record for Hspb7 (GeneID 29818) #2?
GFP, % of control: 76.4; viability (ATP), % of control: 76.3; activity call: inactive

What is on record for Hspb7 (GeneID 29818) #3?
GFP, % of control: 94.2; viability (ATP), % of control: 106; activity call: inactive

2 entries already listed, ordered by “viability (ATP), % of control”, low to high:
Poldip2 (GeneID 67811) #3 | GFP, % of control: 55.4; viability (ATP), % of control: 71.3; activity call: inactive
Poldip2 (GeneID 67811) #2 | GFP, % of control: 119; viability (ATP), % of control: 81.9; activity call: inactive

Next records:
For Ssbp2 (GeneID 66970) #1, what was measured?
GFP, % of control: 85.3; viability (ATP), % of control: 98.6; activity call: inactive

With Ssbp2 (GeneID 66970) #2, what does the deposit list?
GFP, % of control: 94.3; viability (ATP), % of control: 92.1; activity call: inactive

What is on record for Napb (GeneID 17957) #1?
GFP, % of control: 57.5; viability (ATP), % of control: 65.4; activity call: inactive

For Napb (GeneID 17957) #2, what was measured?
GFP, % of control: 67; viability (ATP), % of control: 36.6; activity call: inactive

With Napb (GeneID 17957) #3, what was measured?
GFP, % of control: 67.3; viability (ATP), % of control: 42.4; activity call: inactive

How did the screen score Myocd (GeneID 214384) #1?
GFP, % of control: 34.6; viability (ATP), % of control: 32.8; activity call: inactive

With Myocd (GeneID 214384) #2, what was measured?
GFP, % of control: 48.8; viability (ATP), % of control: 82.6; activity call: inactive

What did the screen give for Myocd (GeneID 214384) #3?
GFP, % of control: 78.2; viability (ATP), % of control: 110; activity call: inactive

Which result is listed for Mutyh (GeneID 70603) #1?
GFP, % of control: 124; viability (ATP), % of control: 116; activity call: active

How did the screen score Mutyh (GeneID 70603) #2?
GFP, % of control: 74.1; viability (ATP), % of control: 76.8; activity call: inactive

How did the screen score Mutyh (GeneID 70603) #3?
GFP, % of control: 98.3; viability (ATP), % of control: 56.1; activity call: inactive

For Or51i1 (GeneID 258819) #1, what does the deposit list?
GFP, % of control: 64.4; viability (ATP), % of control: 78.3; activity call: inactive

For Or51i1 (GeneID 258819) #2, what was measured?
GFP, % of control: 84.9; viability (ATP), % of control: 34.1; activity call: inactive

What did the screen give for Or51i1 (GeneID 258819) #3?
GFP, % of control: 32.3; viability (ATP), % of control: 43.9; activity call: inactive

For Ppp1r37 (GeneID 232947) #1, how do the results read?
GFP, % of control: 137; viability (ATP), % of control: 174; activity call: active

Which result is listed for Ppp1r37 (GeneID 232947) #2?
GFP, % of control: 66.7; viability (ATP), % of control: 53.6; activity call: inactive

With Ppp1r37 (GeneID 232947) #3, what does the deposit list?
GFP, % of control: 153; viability (ATP), % of control: 115; activity call: active
